Experimental data published in the supplement of paper PMC8728848.
The other results are listed elsewhere or left out.

Legend:
Assay in all cases: glycan array binding signal (z-score within array); higher = stronger binding
Conditions in all cases: glycan notation: IUPAC condensed, linker removed
[1] = molecular target: Fuc(a1-2)Gal
Procedure, shortened: (§1)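 Negative Z-scores can be read as non-binding. The Z-score is calculated within each array and then averaged across arrays of one protein sequence at different concentrations or buffers and across linkers. Arrays, 3228 in all, were curated from the Consortium for Functional Glycomics database and kept only where the protein sequence was available.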

[2] = molecular target: Fuc(a1-2)Gal(b1-3)GalNAc
Procedure, shortened: as §1

[3] = molecular target: Fuc(a1-2)Gal(b1-3)GalNAc(a1-3)[Fuc(a1-2)]Gal(b1-4)Glc
Procedure, shortened: as §1

[4] = molecular target: Fuc(a1-2)Gal(b1-3)GalNAc(a1-3)[Fuc(a1-2)]Gal(b1-4)GlcNAc
Procedure, shortened: as §1

[5] = molecular target: Fuc(a1-2)Gal(b1-3)GalNAc(b1-3)Gal
Procedure, shortened: as §1

[6] = molecular target: Fuc(a1-2)Gal(b1-3)GalNAc(b1-3)Gal(a1-4)Gal(b1-4)Glc
Procedure, shortened: as §1

[7] = molecular target: Fuc(a1-2)Gal(b1-3)GalNAc(b1-4)[Neu5Ac(a2-3)]Gal(b1-4)Glc
Procedure, shortened: as §1

[8] = molecular target: Fuc(a1-2)Gal(b1-3)GlcNAc
Procedure, shortened: as §1

[9] = molecular target: Fuc(a1-2)Gal(b1-3)GlcNAc(b1-2)Man(a1-3)[Fuc(a1-2)Gal(b1-3)GlcNAc(b1-2)Man(a1-6)]Man(b1-4)GlcNAc(b1-4)GlcNAc
Procedure, shortened: as §1

[10] = molecular target: Fuc(a1-2)Gal(b1-3)GlcNAc(b1-2)Man(a1-3)[Fuc(a1-2)Gal(b1-3)GlcNAc(b1-2)Man(a1-6)]Man(b1-4)GlcNAc(b1-4)[Fuc(a1-6)]GlcNAc
Procedure, shortened: as §1

[11] = molecular target: Fuc(a1-2)Gal(b1-3)GlcNAc(b1-3)Gal(b1-4)Glc
Procedure, shortened: as §1

[12] = molecular target: Fuc(a1-2)Gal(b1-3)GlcNAc(b1-3)GalNAc
Procedure, shortened: as §1

[13] = molecular target: Fuc(a1-2)Gal(b1-3)GlcNAc(b1-3)[Fuc(a1-2)Gal(b1-3)GlcNAc(b1-6)]GalNAc
Procedure, shortened: as §1

[14] = molecular target: Fuc(a1-2)Gal(b1-3)GlcNAc(b1-3)[Gal(b1-4)GlcNAc(b1-6)]Gal(b1-4)Glc
Procedure, shortened: as §1

[15] = molecular target: Fuc(a1-2)Gal(b1-3)GlcNAc(b1-3)[Neu5Ac(a2-6)Gal(b1-4)GlcNAc(b1-6)]Gal(b1-4)Glc
Procedure, shortened: as §1

[16] = molecular target: Fuc(a1-2)Gal(b1-3)GlcNAc6S
Procedure, shortened: as §1

[17] = molecular target: Fuc(a1-2)Gal(b1-3)[Fuc(a1-4)]GlcNAc
Procedure, shortened: as §1

[18] = molecular target: Fuc(a1-2)Gal(b1-3)[Fuc(a1-4)]GlcNAc(b1-2)Man(a1-3)[Fuc(a1-2)Gal(b1-3)[Fuc(a1-4)]GlcNAc(b1-2)Man(a1-3)]Man(b1-4)GlcNAc(b1-4)GlcNAc
Procedure, shortened: as §1

[19] = molecular target: Fuc(a1-2)Gal(b1-3)[Fuc(a1-4)]GlcNAc(b1-2)Man(a1-3)[Fuc(a1-2)Gal(b1-3)[Fuc(a1-4)]GlcNAc(b1-2)Man(a1-6)]Man(b1-4)GlcNAc(b1-4)[Fuc(a1-6)]GlcNAc(b1-4)[Fuc(a1-6)]GlcNAc
Procedure, shortened: as §1

[20] = molecular target: Fuc(a1-2)Gal(b1-3)[Fuc(a1-4)]GlcNAc(b1-3)[Fuc(a1-3)[Gal(b1-4)]GlcNAc(b1-6)]Gal(b1-4)Glc
Procedure, shortened: as §1

[21] = molecular target: Fuc(a1-2)Gal(b1-3)[Fuc(a1-4)]GlcNAc(b1-3)[Gal(b1-4)GlcNAc(b1-6)]Gal(b1-4)Glc
Procedure, shortened: as §1

[22] = molecular target: Fuc(a1-2)Gal(b1-4)Fuc(a1-3)]GlcNAc(b1-2)Man(a1-3)[Fuc(a1-2)Gal(b1-4)[Fuc(a1-3)]GlcNAc(b1-2)Man(a1-6)]Man(b1-4)GlcNAc(b1-4)GlcNAc
Procedure, shortened: as §1

[23] = molecular target: Fuc(a1-2)Gal(b1-4)Glc
Procedure, shortened: as §1

[24] = molecular target: Fuc(a1-2)Gal(b1-4)Glc6S
Procedure, shortened: as §1

[25] = molecular target: Fuc(a1-2)Gal(b1-4)GlcNAc
Procedure, shortened: as §1

[26] = molecular target: Fuc(a1-2)Gal(b1-4)GlcNAc(b1-2)Man
Procedure, shortened: as §1

[27] = molecular target: Fuc(a1-2)Gal(b1-4)GlcNAc(b1-2)Man(a1-3)[Fuc(a1-2)Gal(b1-4)GlcNAc(b1-2)Man(a1-6)]Man(b1-4)GlcNAc(b1-4)GlcNAc
Procedure, shortened: as §1

[28] = molecular target: Fuc(a1-2)Gal(b1-4)GlcNAc(b1-2)Man(a1-3)[Fuc(a1-2)Gal(b1-4)GlcNAc(b1-2)Man(a1-6)]Man(b1-4)GlcNAc(b1-4)[Fuc(a1-6)]GlcNAc
Procedure, shortened: as §1

[29] = molecular target: Fuc(a1-2)Gal(b1-4)GlcNAc(b1-2)[Fuc(a1-2)Gal(b1-4)GlcNAc(b1-4)]Man(a1-3)[Fuc(a1-2)Gal(b1-4)GlcNAc(b1-2)Man(a1-6)]Man(b1-4)GlcNAc(b1-4)GlcNAc
Procedure, shortened: as §1

[30] = molecular target: Fuc(a1-2)Gal(b1-4)GlcNAc(b1-3)Gal(b1-4)GlcNAc
Procedure, shortened: as §1

B1: MtEccB1 (Mycobacterium tuberculosis H37Rv), O69734 (protein)
chain: MGLRLTTKVQVSGWRFLLRRLEHAIVRRDTRMFDDPLQFYSRSIALGIVVAVLILAGAALLAYFKPQGKLGGTSLFTDRATNQLYVLLSGQLHPVYNLTSARLVLGNPANPATVKSSELSKLPMGQTVGIPGAPYATPVSAGSTSIWTLCDTVARADSTSPVVQTAVIAMPLEIDASIDPLQSHEAVLVSYQGETWIVTTKGRHAIDLTDRALTSSMGIPVTARPTPISEGMFNALPDMGPWQLPPIPAAGAPNSLGLPDDLVIGSVFQIHTDKGPQYYVVLPDGIAQVNATTAAALRATQAHGLVAPPAMVPSLVVRIAERVYPSPLPDEPLKIVSRPQDPALCWSWQRSAGDQSPQSTVLSGRHLPISPSAMNMGIKQIHGTATVYLDGGKFVALQSPDPRYTESMYYIDPQGVRYGVPNAETAKSLGLSSPQNAPWEIVRLLVDGPVLSKDAALLEHDTLPADPSPRKVPAGASGAP
- glycan array binding signal (z-score) [1]: -0.548
- glycan array binding signal (z-score) [2]: -0.692
- glycan array binding signal (z-score) [3]: -1.05
- glycan array binding signal (z-score) [4]: -0.826
- glycan array binding signal (z-score) [5]: -1.11
- glycan array binding signal (z-score) [6]: -0.405
- glycan array binding signal (z-score) [7]: -0.249
- glycan array binding signal (z-score) [8]: -0.229
- glycan array binding signal (z-score) [9]: 1.17
- glycan array binding signal (z-score) [10]: -0.664
- glycan array binding signal (z-score) [11]: -0.246
- glycan array binding signal (z-score) [12]: -1.4
- glycan array binding signal (z-score) [13]: -0.346
- glycan array binding signal (z-score) [14]: 0.321
- glycan array binding signal (z-score) [15]: -0.773
- glycan array binding signal (z-score) [16]: -0.141
- glycan array binding signal (z-score) [17]: -0.545
- glycan array binding signal (z-score) [18]: 1
- glycan array binding signal (z-score) [19]: 0.829
- glycan array binding signal (z-score) [20]: -0.855
- glycan array binding signal (z-score) [21]: -0.485
- glycan array binding signal (z-score) [22]: 0.79
- glycan array binding signal (z-score) [23]: -0.705
- glycan array binding signal (z-score) [24]: -0.973
- glycan array binding signal (z-score) [25]: 0.445
- glycan array binding signal (z-score) [26]: 0.619
- glycan array binding signal (z-score) [27]: -0.208
- glycan array binding signal (z-score) [28]: 0.26
- glycan array binding signal (z-score) [29]: 0.186
- glycan array binding signal (z-score) [30]: -0.199
